Small-molecule microarray binding calls

Calls as published in the ROBIN set (doi:10.1002/anie.202211358).

Oligonucleotides screened, 5′ to 3′:
T1: PreQ1 riboswitch RNA pseudoknot, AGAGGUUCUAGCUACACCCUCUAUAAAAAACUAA. From B. subtilis. Hit rate about 0.7% of about 24,000 compounds.
T2: TPP riboswitch RNA three-way junction, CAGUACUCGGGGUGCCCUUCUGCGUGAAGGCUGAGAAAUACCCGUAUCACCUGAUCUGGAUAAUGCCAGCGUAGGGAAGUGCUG. Hit rate about 0.7% of about 24,000 compounds.
T3: SAM-II riboswitch RNA pseudoknot, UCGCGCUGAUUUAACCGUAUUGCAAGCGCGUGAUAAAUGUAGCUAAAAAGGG. Hit rate about 1% of about 21,000 compounds.

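The test is a small-molecule microarray: each compound is printed twice on a reactive slide, and binding shows as fluorescence of the labelled oligonucleotide after washing. The data file lists only calls. An earlier report of the laboratory on the PreQ1, TPP and SAM-II riboswitches (doi:10.1038/s41467-019-09493-3) used 1 µM RNA for 2 h and required a mean Z-score above 3 (spot signal-to-noise against the whole library), a score well above that on a control array, and duplicate spots agreeing (coefficient of variation under 100); it then also set aside compounds that hit other targets, which this list keeps. The cut-offs behind this list may differ. The calls come from the array alone, and fixing a compound to the slide can hide its binding.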 Key: active = hit, inactive = tested without a hit. The compounds are a random part of those screened. A dash means that no call is listed here.

Compound,T1,T2,T3
CCOc1cc(C2C(C#N)=C(N)Oc3[nH]nc(-c4ccccc4)c32)ccc1O (stereo unspecified),inactive,inactive,inactive
Cc1ccccc1CN1CCC(CNc2ncnc3c2CCNCC3)C1 (stereo unspecified),inactive,inactive,inactive
COCCCNc1c2c(nc3ccccc13)CCC2,inactive,inactive,inactive
Cc1nc(CN2CCN(C(=O)CC3COCCN3)CC2)cs1 (stereo unspecified),inactive,inactive,inactive
OCC1(CCc2ccccc2)CCN(c2ncnc3[nH]ccc23)CC1,inactive,inactive,inactive
CCC(O)c1nc2ccccc2n1CCOc1ccccc1OC (stereo unspecified),inactive,inactive,-
C/C=C/CC1(CC)C(=O)NC(=S)NC1=O,inactive,inactive,inactive
CCn1ccc(C(=O)N2CCC(C(O)Cc3ccccc3)CC2)cc1=O (stereo unspecified),inactive,inactive,inactive
COc1ccc(OC)c(CNc2ccc(Br)cc2)c1,inactive,inactive,inactive
CCOc1ccc(C(=O)c2c(N)nc3n2CCC3)cc1,inactive,inactive,inactive
COc1ccc2c(c1)S(=O)(=O)C(C)=C2N,inactive,inactive,inactive
Cc1nonc1OCCNCc1nnc(-c2ccc(C)n2C)o1,inactive,inactive,inactive
CCCc1nc(-c2cc3cc(C)ccc3nc2NCc2ccc(OC)c(OC)c2)no1,inactive,inactive,-
O=c1[nH]c(N[C@@H]2c3ccccc3C[C@@H]2O)nc2c1CCNC2,inactive,inactive,inactive
Nc1nc(F)cc(N2CCOCC2)n1,inactive,inactive,inactive
Cc1nc(CCNC(=O)c2cn3c(n2)CNCC3)sc1C,inactive,inactive,inactive
COc1cccc(-c2cn[nH]c2C2CCN(C(=O)C3CCCNCC3)CC2)c1 (stereo unspecified),inactive,inactive,inactive
CC(C)c1cc(NCCN2CCOCC2)n2c(nc3ccccc32)c1C#N,inactive,inactive,inactive
CNCC(O)c1cccc(OC(=O)c2ccccc2C)c1 (stereo unspecified),inactive,inactive,inactive
CCN(CC)CCCNc1oc(-c2ccc(F)cc2)nc1C#N,inactive,inactive,inactive
O=C(N[C@@H]1CCN(Cc2ccc(-c3cc[nH]n3)s2)C[C@H]1O)c1cccnc1,inactive,inactive,inactive
CNC(=O)C1CCCN(c2nc(-c3ccco3)nc3c2CCNCC3)C1 (stereo unspecified),inactive,inactive,inactive
CCOC(=O)c1cnc2c(Cl)cccc2c1NCCc1ccccc1,inactive,inactive,inactive
O=c1c2ccccc2nc(C=Cc2cccc([N+](=O)[O-])c2)n1CCCO,inactive,inactive,inactive
COc1ccc(C2(c3nc(C4CCOCC4)nn3CCO)CCCC2)cc1,inactive,inactive,inactive
COc1ccccc1CNc1ncccc1-c1nc(-c2ccc(Cl)cc2)no1,inactive,inactive,-
Cc1noc(C)c1CN(C)Cc1cc2n(n1)CCNC2,inactive,inactive,inactive
CC(CCCc1ccccc1)NC(=O)c1nn(-c2ccc(Cl)cc2)nc1CO (stereo unspecified),inactive,inactive,-
Cc1cc(N2CCN(CC3(O)CNCCOC3)CC2)n2ncnc2n1 (stereo unspecified),inactive,inactive,inactive
Cc1ccc(C(CN)CC(=O)O)cc1.Cl (stereo unspecified),inactive,inactive,inactive
Cc1cc(N2CC[C@H](N3CCOCC3)[C@H](CCCO)C2)nc2cc(F)ccc12,inactive,inactive,inactive
O=S(=O)(NCC(Nc1ccc(F)cc1)c1ccccc1)c1ccc(Cl)cc1 (stereo unspecified),inactive,inactive,-
CCOC(=O)Cc1cc(O)c2cc(C)ccc2n1,inactive,inactive,inactive
Cc1nc2nc(-c3ccccc3Cl)nn2c(C)c1CC(=O)N1CCN(CCO)CC1,inactive,inactive,-
O=S(=O)(F)c1ccc2nc(-c3cccc(Sc4ccccc4)c3)cc(Cl)c2c1,inactive,inactive,inactive
CC(=O)N(C)C1(c2ccccc2)CCN(CCC[C@]2(c3ccc(Cl)c(Cl)c3)CCCN(C(=O)c3ccccc3)C2)CC1,inactive,inactive,inactive
C[C@@H]1CN(C[C@@H]2CN(C(=O)C(=O)c3cccn3C)C[C@@H]2CO)C[C@H](C)O1,inactive,inactive,inactive
COC(=O)C1=C(C)OC(N)=C(C#N)C12C(=O)N(Cc1cccc(F)c1)c1ccccc12 (stereo unspecified),inactive,inactive,inactive
Cc1ccc(-c2cnc(NCc3ccc(Br)cc3)n2C)cc1,inactive,inactive,inactive
CCCOC(=O)c1ccc(OCC(O)Cn2c(C)nc3ccccc32)cc1 (stereo unspecified),inactive,inactive,inactive
CCOCC(O)COc1ccc(NC(=O)CC[S+](C)C)cc1 (stereo unspecified),inactive,inactive,inactive
NC1=C(c2nc3ccccc3[nH]2)C(=O)CN1c1ccccc1Br,inactive,inactive,-
CN(C)CCOc1ccc(C(=C(CCCl)c2ccccc2)c2ccccc2)cc1,inactive,inactive,inactive
O=C(C(Cl)Cl)N1CC2CCC(CC2)C1,inactive,inactive,inactive
C[C@@H]1CC(=O)NN=C1c1ccc(NN=C(C#N)C#N)cc1,inactive,inactive,inactive
Cc1ccc(Nc2c(-c3c[nH]c4ccccc34)nc3c[n+](CC(N)=O)ccn23)cc1,inactive,inactive,inactive
COc1ccc(-c2c(C)nn3c(N)c(-c4ccccc4)cnc23)cc1,inactive,inactive,-
CCCc1nc2nc(C)cc(Nc3ccc(Br)cc3)n2n1,inactive,inactive,inactive
CC1(C)NC(=O)N(CC(O)CN(c2ccccc2)S(=O)(=O)c2ccccc2[N+](=O)[O-])C1=O (stereo unspecified),inactive,inactive,inactive
CN(C)S(=O)(=O)Nc1ccccn1,inactive,inactive,inactive
CC(CO)NC(=O)c1cc2ccccc2oc1=O (stereo unspecified),inactive,inactive,inactive
CSc1ncc2[nH]c(C(O)c3ccccc3)nc2n1 (stereo unspecified),inactive,inactive,inactive
COC(=O)c1cnc(Nc2ccc(F)cc2)c2ccccc12,inactive,inactive,inactive
CCOC(=O)c1nnn(-c2nonc2N)c1-c1ccccc1,inactive,inactive,inactive
Cc1c(S(=O)(=O)c2ccc(Cl)cc2)c(N)n(C2CCCCC2)c1C,inactive,inactive,inactive
COc1ccc(CN[C@H]2CS(=O)(=O)C[C@@H]2S(=O)(=O)c2ccc(F)cc2)cc1OC,inactive,inactive,-
Cn1c(=O)[nH]c(=O)c2c1nc(NCCO)n2Cc1ccc(Cl)cc1,inactive,inactive,inactive
CCC(C)SSc1ncc[nH]1 (stereo unspecified),inactive,inactive,inactive
CN1CCN(C[C@@H]2CN(C(=O)Cn3ccc4ccccc43)C[C@@H]2CO)CC1,inactive,inactive,inactive
COc1ccc(C2C(C#N)=C(N)OC3=C2C(=O)CC(C)(C)C3)cc1 (stereo unspecified),inactive,inactive,inactive
OCCNCc1ccc(OCc2ccc3c(c2)OCCO3)cc1,inactive,inactive,inactive
CCC(=O)c1ccc(OCC(O)Cn2nnc3ccccc32)cc1 (stereo unspecified),inactive,inactive,inactive
CCCCOC(=O)N1CCCC2(CCNCC2)CC1,inactive,inactive,inactive
Cc1nc2c(c(NCCCN3CCCC3=O)n1)CNC2,inactive,inactive,inactive
Cc1cc(NCC(C)C)n2nc(-c3ccccc3)c(C)c2n1,inactive,inactive,-
c1ccc(CNc2ncnc3c2ncn3C2CCCCO2)cc1 (stereo unspecified),inactive,inactive,inactive
CSCCc1nc([C@@H]2C[C@@H](O)CN2)n(-c2ccc(Cl)c(Cl)c2)n1,inactive,inactive,inactive
CC(C)c1ccc(-c2nc3ccccc3s2)cc1,inactive,inactive,inactive
Cc1c(C(=O)NCCO)nnn1-c1ccc2noc(-c3ccc(Br)cc3)c2c1,inactive,inactive,-
COc1cc(-c2nc3cnccn3c2Nc2cccc(C(=O)O)c2)ccc1O,inactive,inactive,-
Cc1cccc2[nH]c(C3CCCN(C(=O)c4ccnc(N)c4)C3)nc12 (stereo unspecified),inactive,inactive,inactive
N[C@H](C(=O)N1CCC(c2nccn2CC2CC2)CC1)c1ccccc1,inactive,inactive,inactive
Cc1cc(C(=O)NC(CC(C)C)c2nnc3n2CCNCC3)[nH]n1 (stereo unspecified),inactive,inactive,inactive

Some entries from above, unchanged:

Compound,T1,T2,T3
CCC(O)c1nc2ccccc2n1CCOc1ccccc1OC (stereo unspecified),inactive,inactive,-
Cc1nc(CCNC(=O)c2cn3c(n2)CNCC3)sc1C,inactive,inactive,inactive
OCC1(CCc2ccccc2)CCN(c2ncnc3[nH]ccc23)CC1,inactive,inactive,inactive
COc1ccccc1CNc1ncccc1-c1nc(-c2ccc(Cl)cc2)no1,inactive,inactive,-
CC(C)c1cc(NCCN2CCOCC2)n2c(nc3ccccc32)c1C#N,inactive,inactive,inactive